PubChem BioAssay AID504467 (National Center for Advancing Translational Sciences (NCATS), 2011)
Screen size: about 330,000 compounds; about 7,700 (2.3%) were called active. The shares of active, inactive and inconclusive entries below differ from those in the screen. Calls come from the whole dose curve; as a rule, active = well fitted inhibition curve with a large enough effect; inconclusive = small, poorly fitted or top-dose-only effect, or effect the other way; inactive = flat fitted curve, though single readings scatter. Potencies beside an inconclusive call are fits to weak or partial responses and may not hold up.

Test: qHTS screen for small molecules that inhibit ELG1-dependent DNA repair in human embryonic kidney (HEK293T) cells expressing luciferase-tagged ELG1; note: nearly all actives have a fitted effect of over 55% in size
Conditions: HEK293T ELG1-luciferase reporter, luminescence, 16 h, DNA damage induced by 5-fluorouridine; activity change, negative = inhibition: at 46.1 µM (top of the series)
Summary of the method: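 5-Fluorouridine DNA damage + compound/DMSO, 2,000 cells/well, 16 h, 37 °C/5% CO2. ONE-Glo, 30 min RT, luminescence. Readout = decrease in reporter signal.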
% is set by controls: 0 for no effect and ±100 for the full control effect; potency is the fitted concentration of half-maximal effect.

Row | SMILES | Potency | activity change, negative = inhibition
1 | Oc1csc(Cc2nc(-c3ccc(Br)cc3)cs2)n1 | inconclusive: 18.3 µM [activator, partial curve] | 
2 | O=C(CSc1nnc2c3ccccc3c3ccccc3c2n1)Nc1ccccc1 |  | inactive: 2.62%
3 | COc1ccc2c(c1)OC[C@H]1[C@H]2N2C(=O)CN(Cc3ccco3)C(=O)[C@@]2(C)[C@H]1c1ccccc1 | inconclusive: 18.3 µM [inhibitor, single point] | 
4 | O=c1cc(Nc2ccc3c(c2)OCCO3)[nH]c(=O)n1Cc1ccc(F)cc1 | inconclusive: 9.2 µM [activator, partial curve, poor fit] | 
5 | CCOC(=O)N1CCC(=NNC(=O)c2ccc(O)cc2)CC1 |  | inactive: 19.5%
6 | COc1ccc(C(=O)/C=C/c2cn(CC(O)CN3CCN(C)CC3)c3ccccc23)cc1OC (stereo not drawn) | inconclusive: 29.1 µM [inhibitor, single point] | 
7 | O=C(Nc1ccc(-c2cn3ccsc3n2)cc1)C1COc2ccccc2O1 (stereo not drawn) |  | inactive: -5.72%
8 | N/C(=N\OC(=O)CCCCCN1C(=O)c2ccccc2C1=O)c1ccccc1 | inconclusive: 9.2 µM [activator, partial curve] | 
9 | O=C(O)[C@@H]1CCCC[C@@H]1C(=O)N1CCc2ccccc2C1CN1C(=O)c2ccccc2C1=O (stereo partly drawn) | inconclusive: 0.231 µM [inhibitor, full curve, poor fit] | 
10 | Cc1ccc(NCC(=O)N/N=C/c2ccc(C(=O)O)cc2)cc1 |  | inactive: 2.53%
11 | CC[C@]12c3[nH]c4cc(-c5ccco5)ccc4c3CCN1C(=O)[C@@H](CC(=O)NCCN1CCOCC1)C[C@@H]2C(=O)N1CCN(C(=O)C2CC2)CC1 | inconclusive: 18.3 µM [activator, partial curve, poor fit] | 
12 | Cc1cc(C)c(C#N)c(SCC(=O)Nc2nonc2N)n1 | inconclusive: 14.6 µM [activator, partial curve] | 
13 | CSCCC(=O)N1CCCC(CNC(=O)c2ccc(-c3ccccc3)cc2)C1 (stereo not drawn) | inconclusive: 23.1 µM [inhibitor, partial curve, poor fit] | 
14 | O=c1cc(CN2CCN(c3ccccc3)CC2)nc2scc(-c3ccccc3)n12 | inconclusive: 29.1 µM [inhibitor, single point] | 
15 | Fc1ccc(N/N=C/c2cccnc2)c(F)c1 | inconclusive: 16.4 µM [activator, partial curve] | 
16 | O=C(O)c1cccc2c1C(=O)c1ccc(Cl)cc1S2(=O)=O | inconclusive: 23.1 µM [activator, single point] | 
17 | CC(NC(=O)CCCc1nnc2n(C)c(=O)c3sccc3n12)c1ccccc1 (stereo not drawn) |  | inactive: -0.632%
18 | CCOC(=O)c1cccc(NC(=O)COc2nsnc2N2CCOCC2)c1 | inconclusive: 29.1 µM [inhibitor, single point] | 

Part of the list above, as tab-separated lines.
Row	SMILES	Potency	activity change, negative = inhibition
3	COc1ccc2c(c1)OC[C@H]1[C@H]2N2C(=O)CN(Cc3ccco3)C(=O)[C@@]2(C)[C@H]1c1ccccc1	inconclusive: 18.3 µM [inhibitor, single point]	
18	CCOC(=O)c1cccc(NC(=O)COc2nsnc2N2CCOCC2)c1	inconclusive: 29.1 µM [inhibitor, single point]	
